Reference: paper PMC3747076
No constants are given. Whether binding was seen depends on the method and setting. In cells and extracts the contact can be indirect. Here binding means that the protein was enriched with, or labelled near, the bait; the list need not be complete. Where a sequence is shown, tags or fusion partners need not be part of it.

Protein sequences, listed by entry. Tags and fused reporters are not part of them.
UniProt Q07955: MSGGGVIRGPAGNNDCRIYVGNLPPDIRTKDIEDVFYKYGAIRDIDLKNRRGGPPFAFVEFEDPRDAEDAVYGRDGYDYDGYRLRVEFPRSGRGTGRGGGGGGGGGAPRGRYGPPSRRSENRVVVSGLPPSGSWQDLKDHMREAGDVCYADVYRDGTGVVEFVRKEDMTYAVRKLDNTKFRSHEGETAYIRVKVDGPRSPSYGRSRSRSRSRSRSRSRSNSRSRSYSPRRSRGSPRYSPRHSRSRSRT
UniProt Q13242: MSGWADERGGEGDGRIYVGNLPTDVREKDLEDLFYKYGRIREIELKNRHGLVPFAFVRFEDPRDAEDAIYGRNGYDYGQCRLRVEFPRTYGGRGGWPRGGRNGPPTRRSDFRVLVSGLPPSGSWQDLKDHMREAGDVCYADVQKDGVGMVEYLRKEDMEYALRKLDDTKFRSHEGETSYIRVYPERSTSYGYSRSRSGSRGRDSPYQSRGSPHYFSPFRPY

Target: T1, FLAG-tagged Transformer-2β (Tra2β) (human) (UniProt P62995)
T1 sequence: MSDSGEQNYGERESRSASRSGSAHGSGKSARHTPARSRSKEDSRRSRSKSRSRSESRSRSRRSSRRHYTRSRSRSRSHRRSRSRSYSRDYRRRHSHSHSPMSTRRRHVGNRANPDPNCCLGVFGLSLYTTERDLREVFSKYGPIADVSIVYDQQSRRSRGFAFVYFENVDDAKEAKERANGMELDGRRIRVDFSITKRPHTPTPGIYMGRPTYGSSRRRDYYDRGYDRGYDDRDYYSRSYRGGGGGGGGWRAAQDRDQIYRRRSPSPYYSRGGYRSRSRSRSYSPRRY
Test: affinity purification with mass spectrometry; anti-FLAG antibody-agarose precipitates of RIPA lysates (with protease, phosphatase and ribonuclease inhibitors) of SH-SY5Y cells expressing FLAG-Tra2β or FLAG alone, overnight at 4°C; SDS-PAGE, silver staining, additional bands cut out and identified by mass spectrometry

binding | Substance
binds | ASF/SF2 (from UniProt Q07955 1-248)
binds | SRp30c (from UniProt Q13242 1-221)
